Measured values: patent publication US9517222B2, “Method for the treatment of senile dementia of the Alzheimer's type” (Phenomenome Discoveries Inc., priority 2007, dated 2016)
Where no unit stands, none is given here, and values compare only within one read-out.

Key:
[1] = Serum ethanolamine phospholipid levels in human cohorts (dementia severity, post-mortem pathology, age) by flow-injection MS/MS
[2] = Serum ethanolamine phospholipid ratios to PtdEt 16:0/18:0 (M01) in human cohorts
[3] = serum, females, post mortem SDAT
[4] = serum, females, post mortem control

CCCCCCCCCCCCCCCCCC(=O)OC[C@H](COP(=O)(O)OCCN)OC(=O)CCCCCCCCCCCCCCCCC [Metabolite M03, PtdEt 18:0/18:0]
Ratio of serum levels ([1]; AD, All to CN, Male): 0.769 | Ratio of serum levels ([1]; ADAS 5-19 to CN, Male): 0.836 | Ratio of serum levels ([1]; ADAS 20-39 to 5-19, Male): 0.880 | Ratio of serum levels ([1]; ADAS 20-39 to CN, Male): 0.735 | Ratio of serum levels ([1]; ADAS 40-70 to 5-19, Male): 0.784 | Ratio of serum levels ([1]; ADAS 40-70 to 20-39, Male): 0.891 | Ratio of serum levels ([1]; ADAS 40-70 to CN, Male): 0.655 | Serum level, Mean ([1]; Cognitive Normal, Female): 0.099 | Average serum level, Mean ([1]; Cognitive Normal, Male): 0.109 | Serum level, Mean ([1]; Post Mortem Ctl, Male): 0.059 | Serum level, Mean ([1]; Post Mortem SDAT Male): 0.036 | Ratio of serum levels ([1]; Post mortem SDAT vs Control, Male): 0.610 | Serum level, Mean ([1]; SDAT, ADAS 5-19, Female): 0.080 | Average serum level, Mean ([1]; SDAT, ADAS 5-19, Male): 0.091 | Serum level, Mean ([1]; SDAT, ADAS 20-39, Female): 0.076 | Average serum level, Mean ([1]; SDAT, ADAS 20-39, Male): 0.080 | Serum level, Mean ([1]; SDAT, ADAS 40-70, Female): 0.073 | Average serum level, Mean ([1]; SDAT, ADAS 40-70, Male): 0.072 | Serum level, Mean ([1]; SDAT_all, Female): 0.076 | Average serum level, Mean ([1]; SDAT_all, Male): 0.084 | Ratio, ADAS 5-19 to CN, Female ([1]; serum level ratio, females, ADAS 5-19 vs CN): 0.814 | Ratio, ADAS 20-39 to 5-19, Female ([1]; serum level ratio, females, ADAS 20-39 vs ADAS 5-19): 0.951 | Ratio, ADAS 20-39 to CN, Female ([1]; serum level ratio, females, ADAS 20-39 vs CN): 0.775 | Ratio, ADAS 40-70 to 5-19, Female ([1]; serum level ratio, females, ADAS 40-70 vs ADAS 5-19): 0.906 | Ratio, ADAS 40-70 to 20-39, Female ([1]; serum level ratio, females, ADAS 40-70 vs ADAS 20-39): 0.952 | Ratio, ADAS 40-70 to CN, Female ([1]; serum level ratio, females, ADAS 40-70 vs CN): 0.737 | Ratio, 50-59 vs. 40-49, Female ([1]; serum level ratio, females, age 50-59 vs 40-49): 0.927 | Ratio, 60-69 vs. 40-49, Female ([1]; serum level ratio, females, age 60-69 vs 40-49): 0.906 | Ratio, 70+ vs. 40-49, Female ([1]; serum level ratio, females, age 70+ vs 40-49): 0.989 | Ratio, AD, All to CN, Female ([1]; serum level ratio, females, all AD vs cognitively normal): 0.772 | Ratio, Autopsy AD vs. Control, Female ([1]; serum level ratio, females, autopsy AD vs control): 0.619 | Ratio, 50-59 vs. 40-49, Male ([1]; serum level ratio, males, age 50-59 vs 40-49): 1.125 | Ratio, 60-69 vs. 40-49, Male ([1]; serum level ratio, males, age 60-69 vs 40-49): 1.213 | Ratio, 70+ vs. 40-49, Male ([1]; serum level ratio, males, age 70+ vs 40-49): 1.296 | Mean serum level, Age Ctl, 30-39, Female ([1]; serum, females, age 30-39): 0.095 | Mean serum level, Age Ctl, 40-49, Female ([1]; serum, females, age 40-49): 0.101 | Mean serum level, Age Ctl, 50-59, Female ([1]; serum, females, age 50-59): 0.093 | Mean serum level, Age Ctl, 60-69, Female ([1]; serum, females, age 60-69): 0.091 | Mean serum level, Age Ctl, 70+, Female ([1]; serum, females, age 70+): 0.100 | Mean serum level, Post Mortem SDAT, Female [1, 3]: 0.043 | Mean serum level, Post Mortem Ctl, Female [1, 4]: 0.070 | Mean serum level, Age Ctl, 30-39, Male ([1]; serum, males, age 30-39): 0.102 | Mean serum level, Age Ctl, 40-49, Male ([1]; serum, males, age 40-49): 0.085 | Mean serum level, Age Ctl, 50-59, Male ([1]; serum, males, age 50-59): 0.095 | Mean serum level, Age Ctl, 60-69, Male ([1]; serum, males, age 60-69): 0.103 | Mean serum level, Age Ctl, 70+, Male ([1]; serum, males, age 70+): 0.110 | Ratio of ethanolamine phospholipid ratios to M01 between cohorts ([2]; AD, All to CN, Male): 0.742 | Ratio of ethanolamine phospholipid ratios to M01 between cohorts ([2]; ADAS 5-19 to CN, Male): 0.812 | Ratio of ethanolamine phospholipid ratios to M01 between cohorts ([2]; ADAS 20-39 to CN, Male): 0.724 | Ratio of ethanolamine phospholipid ratios to M01 between cohorts ([2]; ADAS 40-70 to CN, Male): 0.643 | Average serum ethanolamine phospholipid ratio to M01, Mean ([2]; Cognitive Normal, Male, serum): 0.960 | Average serum ethanolamine phospholipid ratio to M01, Mean ([2]; SDAT, ADAS 5-19, Male, serum): 0.779 | Average serum ethanolamine phospholipid ratio to M01, Mean ([2]; SDAT, ADAS 20-39, Male, serum): 0.694 | Average serum ethanolamine phospholipid ratio to M01, Mean ([2]; SDAT, ADAS 40-70, Male, serum): 0.617 | Average serum ethanolamine phospholipid ratio to M01, Mean ([2]; SDAT_all, Male, serum): 0.712 | Ethanolamine Phospholipid Ratio to M01, Mean, Age Ctl, 30-39, Female ([2]; human serum, females aged 30-39): 0.931 | Ethanolamine Phospholipid Ratio to M01, Mean, Age Ctl, 40-49, Female ([2]; human serum, females aged 40-49): 0.911 | Ethanolamine Phospholipid Ratio to M01, Mean, Age Ctl, 50-59, Female ([2]; human serum, females aged 50-59): 0.926 | Ratio of Ethanolamine Phospholipid Ratio to M01, 50-59 vs. 40-49, Female ([2]; human serum, females aged 50-59 vs. females aged 40-49): 1.017 | Ethanolamine Phospholipid Ratio to M01, Mean, Age Ctl, 60-69, Female ([2]; human serum, females aged 60-69): 0.750 | Ratio of Ethanolamine Phospholipid Ratio to M01, 60-69 vs. 40-49, Female ([2]; human serum, females aged 60-69 vs. females aged 40-49): 0.823 | Ethanolamine Phospholipid Ratio to M01, Mean, Age Ctl, 70+_Female ([2]; human serum, females aged 70+): 0.838 | Ratio of Ethanolamine Phospholipid Ratio to M01, 70+ vs. 40-49, Female ([2]; human serum, females aged 70+ vs. females aged 40-49): 0.920 | Ratio of Ethanolamine Phospholipid Ratio to M01, 50-59 vs. 40-49, Male ([2]; human serum, males aged 50-59 vs. males aged 40-49): 1.149 | Ratio of Ethanolamine Phospholipid Ratio to M01, 60-69 vs. 40-49, Male ([2]; human serum, males aged 60-69 vs. males aged 40-49): 1.054 | Ratio of Ethanolamine Phospholipid Ratio to M01, 70+ vs. 40-49, Male ([2]; human serum, males aged 70+ vs. males aged 40-49): 1.128 | Ratio of ethanolamine phospholipid ratio to M01, ADAS 5-19 to CN, Female ([2]; serum, females, ADAS 5-19 vs cognitive normal): 0.871 | Ratio of ethanolamine phospholipid ratio to M01, ADAS 20-39 to 5-19, Female ([2]; serum, females, ADAS 20-39 vs ADAS 5-19): 0.949 | Ratio of ethanolamine phospholipid ratio to M01, ADAS 20-39 to CN, Female ([2]; serum, females, ADAS 20-39 vs cognitive normal): 0.826 | Ratio of ethanolamine phospholipid ratio to M01, ADAS 40-70 to 5-19, Female ([2]; serum, females, ADAS 40-70 vs ADAS 5-19): 0.841 | Ratio of ethanolamine phospholipid ratio to M01, ADAS 40-70 to 20-39, Female ([2]; serum, females, ADAS 40-70 vs ADAS 20-39): 0.887 | Ratio of ethanolamine phospholipid ratio to M01, ADAS 40-70 to CN, Female ([2]; serum, females, ADAS 40-70 vs cognitive normal): 0.732 | Ethanolamine phospholipid ratio to M01, Mean, SDAT, ADAS 5-19, Female ([2]; serum, females, SDAT ADAS 5-19): 0.742 | Ethanolamine phospholipid ratio to M01, Mean, SDAT, ADAS 20-39, Female ([2]; serum, females, SDAT ADAS 20-39): 0.704 | Ethanolamine phospholipid ratio to M01, Mean, SDAT, ADAS 40-70, Female ([2]; serum, females, SDAT ADAS 40-70): 0.624 | Ratio of ethanolamine phospholipid ratio to M01, AD, All to CN, Female ([2]; serum, females, all AD vs cognitive normal): 0.806 | Ethanolamine phospholipid ratio to M01, Mean, SDAT_all Female ([2]; serum, females, all SDAT): 0.687 | Ratio of ethanolamine phospholipid ratio to M01, Autopsy AD vs. Control, Female ([2]; serum, females, autopsy AD vs post mortem control): 0.902 | Ethanolamine phospholipid ratio to M01, Mean, Cognitive Normal, Female ([2]; serum, females, cognitive normal): 0.852 | Ethanolamine phospholipid ratio to M01, Mean, Post Mortem SDAT Female [2, 3]: 0.361 | Ethanolamine phospholipid ratio to M01, Mean, Post Mortem Ctl, Female [2, 4]: 0.400 | Ratio of ethanolamine phospholipid ratio to M01, ADAS 20-39 to 5-19, Male ([2]; serum, males, SDAT ADAS 20-39 vs ADAS 5-19): 0.891 | Ratio of ethanolamine phospholipid ratio to M01, ADAS 40-70 to 5-19, Male ([2]; serum, males, SDAT ADAS 40-70 vs ADAS 5-19): 0.792 | Ratio of ethanolamine phospholipid ratio to M01, ADAS 40-70 to 20-39, Male ([2]; serum, males, SDAT ADAS 40-70 vs ADAS 20-39): 0.888 | Ethanolamine phospholipid ratio to M01, Mean, Age Ctl, 30-39, Male ([2]; serum, males, age control 30-39): 0.863 | Ethanolamine phospholipid ratio to M01, Mean, Age Ctl, 40-49, Male ([2]; serum, males, age control 40-49): 0.751 | Ethanolamine phospholipid ratio to M01, Mean, Age Ctl, 50-59, Male ([2]; serum, males, age control 50-59): 0.864 | Ethanolamine phospholipid ratio to M01, Mean, Age Ctl, 60-69, Male ([2]; serum, males, age control 60-69): 0.792 | Ethanolamine phospholipid ratio to M01, Mean, Age Ctl, 70+_Male ([2]; serum, males, age control 70+): 0.848 | Ethanolamine phospholipid ratio to M01, Mean, Post Mortem SDAT Male ([2]; serum, males, post mortem SDAT): 0.391 | Ratio of ethanolamine phospholipid ratio to M01, SDAT vs Control (post mortem, males) ([2]; serum, males, post mortem SDAT vs post mortem control): 0.811 | Ethanolamine phospholipid ratio to M01, Mean, Post Mortem Ctl, Male ([2]; serum, males, post mortem control): 0.482
